Measurements: publication doi:10.1101/2022.04.04.487088
These are yes or no findings as the source states them, for the method shown. In cells and extracts the contact can be indirect. Some results given as binding are weak or reduced against the parent protein; the word gives no strength. Where a sequence is shown, tags or fusion partners need not be part of it.

B1: PBP1a-Flag (chromosomal PBP1a with three Flag-tags at the C-terminus) (enzyme, UniProt P02918 1-850)
chain: MKFVKYFLILAVCCILLGAGSIYGLYRYIEPQLPDVATLKDVRLQIPMQIYSADGELIAQYGEKRRIPVTLDQIPPEMVKAFIATEDSRFYEHHGVDPVGIFRAASVALFSGHASQGASTITQQLARNFFLSPERTLMRKIKEVFLAIRIEQLLTKDEILELYLNKIYLGYRAYGVGAAAQVYFGKTVDQLTLNEMAVIAGLPKAPSTFNPLYSMDRAVARRNVVLSRMLDEGYITQQQFDQTRTEAINANYHAPEIAFSAPYLSEMVRQEMYNRYGESAYEDGYRIYTTITRKVQQAAQQAVRNNVLDYDMRHGYRGPANVLWKVGESAWDNNKITDTLKALPTYGPLLPAAVTSANPQQATAMLADGSTVALSMEGVRWARPYRSDTQQGPTPRKVTDVLQTGQQIWVRQVGDAWWLAQVPEVNSALVSINPQNGAVMALVGGFDFNQSKFNRATQALRQVGSNIKPFLYTAAMDKGLTLASMLNDVPISRWDASAGSDWQPKNSPPQYAGPIRLRQGLGQSKNVVMVRAMRAMGVDYAAEYLQRFGFPAQNIVHTESLALGSASFTPMQVARGYAVMANGGFLVDPWFISKIENDQGGVIFEAKPKVACPECDIPVIYGDTQKSNVLENNDVEDVAISREQQNVSVPMPQLEQANQALVAKTGAQEYAPHVINTPLAFLIKSALNTNIFGEPGWQGTGWRAGRDLQRRDIGGKTGTTNSSKDAWFSGYGPGVVTSVWIGFDDHRRNLGHTTASGAIKDQISGYEGGAKSAQPAWDAYMKAVLEGVPEQPLTPPPGIVTVNIDRSTGQLANGGNSREEYFIEGTQPTQQAVHEVGTTIIDNGEAQELF
B2: PBP1b-Flag (chromosomal PBP1b with three Flag-tags at the C-terminus) (enzyme, UniProt P02919 1-844)
chain: MAGNDREPIGRKGKPTRPVKQKVSRRRYEDDDDYDDYDDYEDEEPMPRKGKGKGKGRKPRGKRGWLWLLLKLAIVFAVLIAIYGVYLDQKIRSRIDGKVWQLPAAVYGRMVNLEPDMTISKNEMVKLLEATQYRQVSKMTRPGEFTVQANSIEMIRRPFDFPDSKEGQVRARLTFDGDHLATIVNMENNRQFGFFRLDPRLITMISSPNGEQRLFVPRSGFPDLLVDTLLATEDRHFYEHDGISLYSIGRAVLANLTAGRTVQGASTLTQQLVKNLFLSSERSYWRKANEAYMALIMDARYSKDRILELYMNEVYLGQSGDNEIRGFPLASLYYFGRPVEELSLDQQALLVGMVKGASIYNPWRNPKLALERRNLVLRLLQQQQIIDQELYDMLSARPLGVQPRGGVISPQPAFMQLVRQELQAKLGDKVKDLSGVKIFTTFDSVAQDAAEKAAVEGIPALKKQRKLSDLETAIVVVDRFSGEVRAMVGGSEPQFAGYNRAMQARRSIGSLAKPATYLTALSQPKIYRLNTWIADAPIALRQPNGQVWSPQNDDRRYSESGRVMLVDALTRSMNVPTVNLGMALGLPAVTETWIKLGVPKDQLHPVPAMLLGALNLTPIEVAQAFQTIASGGNRAPLSALRSVIAEDGKVLYQSFPQAERAVPAQAAYLTLWTMQQVVQRGTGRQLGAKYPNLHLAGKTGTTNNNVDTWFAGIDGSTVTITWVGRDNNQPTKLYGASGAMSIYQRYLANQTPTPLNLVPPEDIADMGVDYDGNFVCSGGMRILPVWTSDPQSLCQQSEMQQQPSGNPFDQSSQPQQQPQQQPAQQEQKDSDGVAGWIKDMFGSN
B3: PBP2-Flag (chromosomal PBP2 with three Flag-tags at the C-terminus) (enzyme, UniProt P0AD65 1-633)
chain: MKLQNSFRDYTAESALFVRRALVAFLGILLLTGVLIANLYNLQIVRFTDYQTRSNENRIKLVPIAPSRGIIYDRNGIPLALNRTIYQIEMMPEKVDNVQQTLDALRSVVDLTDDDIAAFRKERARSHRFTSIPVKTNLTEVQVARFAVNQYRFPGVEVKGYKRRYYPYGSALTHVIGYVSKINDKDVERLNNDGKLANYAATHDIGKLGIERYYEDVLHGQTGYEEVEVNNRGRVIRQLKEVPPQAGHDIYLTLDLKLQQYIETLLAGSRAAVVVTDPRTGGVLALVSTPSYDPNLFVDGISSKDYSALLNDPNTPLVNRATQGVYPPASTVKPYVAVSALSAGVITRNTTLFDPGWWQLPGSEKRYRDWKKWGHGRLNVTRSLEESADTFFYQVAYDMGIDRLSEWMGKFGYGHYTGIDLAEERSGNMPTREWKQKRFKKPWYQGDTIPVGIGQGYWTATPIQMSKALMILINDGIVKVPHLLMSTAEDGKQVPWVQPHEPPVGDIHSGYWELAKDGMYGVANRPNGTAHKYFASAPYKIAAKSGTAQVFGLKANETYNAHKIAERLRDHKLMTAFAPYNNPQVAVAMILENGGAGPAVGTLMRQILDHIMLGDNNTDLPAENPAVAAAEDH
B4: PBP3-Flag (chromosomal PBP3 with three Flag-tags at the C-terminus) (enzyme, UniProt P0AD68 1-577)
chain: MKAAAKTQKPKRQEEHANFISWRFALLCGCILLALAFLLGRVAWLQVISPDMLVKEGDMRSLRVQQVSTSRGMITDRSGRPLAVSVPVKAIWADPKEVHDAGGISVGDRWKALANALNIPLDQLSARINANPKGRFIYLARQVNPDMADYIKKLKLPGIHLREESRRYYPSGEVTAHLIGFTNVDSQGIEGVEKSFDKWLTGQPGERIVRKDRYGRVIEDISSTDSQAAHNLALSIDERLQALVYRELNNAVAFNKAESGSAVLVDVNTGEVLAMANSPSYNPNNLSGTPKEAMRNRTITDVFEPGSTVKPMVVMTALQRGVVRENSVLNTIPYRINGHEIKDVARYSELTLTGVLQKSSNVGVSKLALAMPSSALVDTYSRFGLGKATNLGLVGERSGLYPQKQRWSDIERATFSFGYGLMVTPLQLARVYATIGSYGIYRPLSITKVDPPVPGERVFPESIVRTVVHMMESVALPGGGGVKAAIKGYRIAIKTGTAKKVGPDGRYINKYIAYTAGVAPASQPRFALVVVINDPQAGKYYGGAVSAPVFGAIMGGVLRTMNIEPDALTTGDKNEFV
B5: overexpressed full-length PBP1a (enzyme, UniProt P02918 1-850)
chain: B1 chain
B6: overexpressed full-length PBP1b (enzyme, UniProt P02919 1-844)
chain: B2 chain

What follows are binders tested against T1, His-tagged DacA (E. coli) (UniProt P0AEB2) (assay: pull-down).
T1 sequence: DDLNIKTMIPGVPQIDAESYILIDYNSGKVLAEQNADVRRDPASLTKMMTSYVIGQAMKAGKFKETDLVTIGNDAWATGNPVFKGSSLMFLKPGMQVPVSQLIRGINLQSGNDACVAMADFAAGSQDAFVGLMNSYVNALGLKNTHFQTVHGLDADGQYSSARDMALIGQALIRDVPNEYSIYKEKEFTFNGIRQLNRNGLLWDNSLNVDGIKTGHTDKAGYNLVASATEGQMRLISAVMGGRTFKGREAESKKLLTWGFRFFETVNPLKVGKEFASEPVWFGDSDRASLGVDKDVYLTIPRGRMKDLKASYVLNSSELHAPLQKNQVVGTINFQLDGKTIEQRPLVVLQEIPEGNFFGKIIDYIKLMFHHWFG

Question: For B1, which binding is on record?
Answer: The binding was “binds”.

Question: With B2 as the binder, how does the binding read?
Answer: Its binding is “binds”.

Question: For B3, which binding is on record?
Answer: Its binding is “binds”.

Question: Which binding does the source give for B4 here?
Answer: Its binding is “binds”.

Question: B5 was tested. Which binding did it give?
Answer: Its binding is “binds”.

Question: How did the binding turn out when B6 was run?
Answer: The binding was “binds”.

The binders below were run against T2, His-tagged DacA(ΔC) (E. coli) (UniProt P0AEB2) (assay: pull-down).
T2 sequence: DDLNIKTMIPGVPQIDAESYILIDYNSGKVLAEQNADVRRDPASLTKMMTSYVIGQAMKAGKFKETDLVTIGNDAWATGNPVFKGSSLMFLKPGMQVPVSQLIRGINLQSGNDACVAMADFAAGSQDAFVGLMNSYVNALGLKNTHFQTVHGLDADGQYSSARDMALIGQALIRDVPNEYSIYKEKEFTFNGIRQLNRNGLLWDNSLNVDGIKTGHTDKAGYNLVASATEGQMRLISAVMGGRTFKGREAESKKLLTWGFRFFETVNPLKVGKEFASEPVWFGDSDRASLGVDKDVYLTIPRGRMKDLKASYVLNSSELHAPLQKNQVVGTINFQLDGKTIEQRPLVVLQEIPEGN

Question: Which binding does the source give for B1 here?
Answer: Its binding is “no binding”.

Question: How did the binding turn out when B2 was run?
Answer: Its binding is “no binding”.

Question: With B3 as the binder, how does the binding read?
Answer: Its binding is “no binding”.

Question: With B4 as the binder, how does the binding read?
Answer: Its binding is “no binding”.

Question: For B5, which binding is on record?
Answer: Its binding is “no binding”.

Question: B6 was tested. Which binding did it give?
Answer: Its binding is “no binding”.
